## Primary screen of a compound library

The chains behind the UniProt entries cited, without tags or fusion partners. Residues count along the entry.
UniProt Q4DA54, 1-478: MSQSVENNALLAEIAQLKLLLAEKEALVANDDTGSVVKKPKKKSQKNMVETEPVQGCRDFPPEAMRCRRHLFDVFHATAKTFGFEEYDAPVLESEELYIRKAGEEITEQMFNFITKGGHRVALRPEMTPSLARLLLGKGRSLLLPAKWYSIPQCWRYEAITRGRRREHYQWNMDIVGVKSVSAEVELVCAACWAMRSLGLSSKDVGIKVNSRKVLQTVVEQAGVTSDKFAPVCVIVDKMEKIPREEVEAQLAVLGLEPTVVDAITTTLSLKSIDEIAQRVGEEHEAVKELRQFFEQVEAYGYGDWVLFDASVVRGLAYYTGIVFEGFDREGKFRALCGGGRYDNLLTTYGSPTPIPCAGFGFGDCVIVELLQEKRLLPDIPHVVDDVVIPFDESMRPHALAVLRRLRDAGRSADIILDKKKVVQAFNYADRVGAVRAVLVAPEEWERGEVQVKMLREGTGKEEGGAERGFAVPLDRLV
UniProt I6X8D2, whole entry: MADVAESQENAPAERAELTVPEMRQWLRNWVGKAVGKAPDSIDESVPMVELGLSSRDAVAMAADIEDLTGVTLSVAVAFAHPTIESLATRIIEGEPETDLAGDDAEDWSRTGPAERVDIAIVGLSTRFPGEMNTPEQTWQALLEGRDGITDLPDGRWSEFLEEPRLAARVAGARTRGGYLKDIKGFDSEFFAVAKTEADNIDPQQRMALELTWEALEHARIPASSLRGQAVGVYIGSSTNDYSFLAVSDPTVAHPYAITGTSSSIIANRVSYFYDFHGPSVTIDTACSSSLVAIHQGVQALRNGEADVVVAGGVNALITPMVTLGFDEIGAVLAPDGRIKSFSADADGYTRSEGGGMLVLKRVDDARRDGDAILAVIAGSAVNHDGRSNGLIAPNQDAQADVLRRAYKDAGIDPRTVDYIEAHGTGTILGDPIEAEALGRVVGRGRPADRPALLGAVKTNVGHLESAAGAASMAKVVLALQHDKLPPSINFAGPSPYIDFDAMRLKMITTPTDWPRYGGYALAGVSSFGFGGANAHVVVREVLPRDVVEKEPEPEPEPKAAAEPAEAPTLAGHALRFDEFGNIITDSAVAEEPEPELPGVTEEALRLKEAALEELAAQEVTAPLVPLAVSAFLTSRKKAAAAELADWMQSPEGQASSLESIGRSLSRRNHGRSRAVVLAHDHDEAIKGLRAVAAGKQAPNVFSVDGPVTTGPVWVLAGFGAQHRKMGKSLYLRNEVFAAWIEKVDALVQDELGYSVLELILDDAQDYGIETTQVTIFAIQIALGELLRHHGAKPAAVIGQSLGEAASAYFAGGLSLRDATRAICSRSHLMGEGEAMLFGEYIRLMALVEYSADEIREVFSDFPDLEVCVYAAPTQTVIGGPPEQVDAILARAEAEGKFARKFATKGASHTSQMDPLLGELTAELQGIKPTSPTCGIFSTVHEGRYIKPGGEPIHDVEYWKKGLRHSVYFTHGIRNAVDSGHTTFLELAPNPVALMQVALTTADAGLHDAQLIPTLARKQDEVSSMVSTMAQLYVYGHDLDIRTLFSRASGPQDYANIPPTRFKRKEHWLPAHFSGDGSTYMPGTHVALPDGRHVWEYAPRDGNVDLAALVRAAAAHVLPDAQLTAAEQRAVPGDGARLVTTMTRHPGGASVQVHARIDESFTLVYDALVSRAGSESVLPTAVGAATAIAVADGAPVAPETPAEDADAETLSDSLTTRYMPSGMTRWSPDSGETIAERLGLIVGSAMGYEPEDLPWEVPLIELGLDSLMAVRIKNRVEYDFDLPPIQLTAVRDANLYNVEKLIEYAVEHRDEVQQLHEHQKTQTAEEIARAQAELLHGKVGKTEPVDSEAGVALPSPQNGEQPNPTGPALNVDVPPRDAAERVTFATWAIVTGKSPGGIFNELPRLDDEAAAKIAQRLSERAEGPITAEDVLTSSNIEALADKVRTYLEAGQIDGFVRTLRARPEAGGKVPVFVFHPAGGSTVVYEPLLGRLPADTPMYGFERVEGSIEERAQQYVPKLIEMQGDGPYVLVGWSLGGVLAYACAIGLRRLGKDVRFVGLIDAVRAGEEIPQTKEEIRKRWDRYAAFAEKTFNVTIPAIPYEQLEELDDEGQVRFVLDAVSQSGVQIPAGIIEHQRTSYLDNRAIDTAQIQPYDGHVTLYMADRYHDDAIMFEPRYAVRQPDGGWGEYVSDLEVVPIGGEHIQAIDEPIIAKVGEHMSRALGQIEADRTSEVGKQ
UniProt P9WNZ1, whole entry: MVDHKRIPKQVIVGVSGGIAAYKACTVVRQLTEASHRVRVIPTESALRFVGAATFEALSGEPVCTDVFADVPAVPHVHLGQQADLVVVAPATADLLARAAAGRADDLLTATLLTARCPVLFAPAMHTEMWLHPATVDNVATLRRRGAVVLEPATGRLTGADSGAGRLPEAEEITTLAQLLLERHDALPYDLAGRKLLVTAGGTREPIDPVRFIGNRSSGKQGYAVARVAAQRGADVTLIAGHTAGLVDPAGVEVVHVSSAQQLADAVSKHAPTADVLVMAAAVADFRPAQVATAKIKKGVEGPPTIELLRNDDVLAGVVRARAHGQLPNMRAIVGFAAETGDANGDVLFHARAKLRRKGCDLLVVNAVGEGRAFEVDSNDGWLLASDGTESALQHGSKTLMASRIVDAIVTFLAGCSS
UniProt Q8IDJ8, 1-583: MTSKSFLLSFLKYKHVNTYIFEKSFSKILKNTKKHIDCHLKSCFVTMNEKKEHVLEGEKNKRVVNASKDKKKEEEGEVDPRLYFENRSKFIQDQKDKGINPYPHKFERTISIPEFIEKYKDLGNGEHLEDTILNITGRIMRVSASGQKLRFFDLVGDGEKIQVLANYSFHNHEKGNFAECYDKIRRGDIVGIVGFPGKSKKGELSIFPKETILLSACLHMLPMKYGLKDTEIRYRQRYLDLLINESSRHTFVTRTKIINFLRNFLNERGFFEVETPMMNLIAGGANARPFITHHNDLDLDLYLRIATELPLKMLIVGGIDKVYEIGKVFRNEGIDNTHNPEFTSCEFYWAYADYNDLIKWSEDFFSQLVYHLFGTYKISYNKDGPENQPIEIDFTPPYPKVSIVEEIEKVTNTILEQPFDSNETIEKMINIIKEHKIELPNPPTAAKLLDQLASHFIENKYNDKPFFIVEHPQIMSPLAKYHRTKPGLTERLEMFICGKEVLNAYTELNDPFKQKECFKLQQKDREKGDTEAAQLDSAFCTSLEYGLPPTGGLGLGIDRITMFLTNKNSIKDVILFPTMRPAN
UniProt P9WFT3, whole entry: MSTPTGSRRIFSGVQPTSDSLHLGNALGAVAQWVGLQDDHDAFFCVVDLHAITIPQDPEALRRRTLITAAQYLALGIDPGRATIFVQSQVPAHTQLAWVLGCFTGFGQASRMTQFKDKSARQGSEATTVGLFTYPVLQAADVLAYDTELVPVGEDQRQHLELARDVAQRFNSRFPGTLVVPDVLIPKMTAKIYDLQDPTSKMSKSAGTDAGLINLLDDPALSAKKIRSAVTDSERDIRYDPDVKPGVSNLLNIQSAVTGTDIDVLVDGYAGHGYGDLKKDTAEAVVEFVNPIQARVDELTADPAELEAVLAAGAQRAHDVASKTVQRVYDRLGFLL

Measurements from “University of Dundee, Small-Polar-MMV Screening Library” (2021), ChEMBL document CHEMBL3988442.

Results are given as percent effect. The controls that fix the scale are not given in the record; negative values are as filed. This is an unselected part of the compounds tested. Two or more numbers in one place are separate tests of the same structure; such repeats can differ widely. A dash means the value is not listed here; it may have been measured.

TcHisRS: 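Histidine-tRNA ligase, Trypanosoma cruzi CL Brener (UniProt Q4DA54). Enzyme assay of histidyl-tRNA synthetase; the read-out is not stated. Tested at 30 µM. Direction is inferred from retests: higher values go with stronger inhibition. About 69,000 compounds were tested under these conditions; 0.045% (about 31) showed 50% or more at least once.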
Pks13 thioesterase: 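Polyketide synthase Pks13, Mycobacterium tuberculosis (UniProt I6X8D2). Enzyme assay of the thioesterase domain of polyketide synthase 13; the read-out is not stated. Compounds at 30 µM. The record gives no direction; the compounds picked for IC50 retests had high values, so higher reads as stronger inhibition. Of about 67,000 compounds tested this way, about 300 (0.46%) reached 50% or more in at least one test.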
CoaBC: 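Enzyme assay of CoaBC with a phosphate dye (Biomol Green) read at 650 nm. Target: Coenzyme A biosynthesis protein CoaBC, Mycobacterium tuberculosis (UniProt P9WNZ1). Tested at 30 µM. Direction is inferred from only a few compounds that gave an IC50; most scored high, so higher reads as stronger inhibition. Most strong results did not repeat in a second test. Of about 67,000 compounds tested this way, about 40 (0.06%) reached 50% or more in at least one test.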
Leishmania in macrophages: 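Cell assay of Leishmania donovani living inside macrophages; the read-out is not stated. Concentration: 30 µM. The record gives no direction; compounds that gave an IC50 in retests scored well above the rest, so higher reads as stronger inhibition. About 69,000 compounds were tested under these conditions; 1.5% (about 1,000) showed 50% or more at least once.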
PfKRS1: 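Lysine-tRNA ligase, Plasmodium falciparum 3D7 (UniProt Q8IDJ8). Enzyme assay of the cytosolic lysyl-tRNA synthetase in 384-well plates, read by luminescence. Concentration: 30 µM. Direction is inferred from only a few compounds that gave an IC50; most scored high, so higher reads as stronger inhibition. Size under these conditions: about 69,000 compounds, about 49 of them at 50% or above in at least one test.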
MtTrpRS: 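Enzyme assay of tryptophanyl-tRNA synthetase; the read-out is not stated. Target: Tryptophan-tRNA ligase, Mycobacterium tuberculosis (UniProt P9WFT3). Tested at 10 µM. Direction is not recorded; retested compounds ran higher, which suggests that high means inhibition. Size under these conditions: about 65,000 compounds, about 64 of them at 50% or above in at least one test.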

compound	TcHisRS	Pks13 thioesterase	CoaBC	Leishmania in macrophages	PfKRS1	MtTrpRS
NCc1ccc(Oc2cccc(Cl)c2Cl)nc1	3.922	26.13	-7.337	-39.92	1.504	2.816
C[C@H]1C[C@H]2CN(C(=O)CC3CC3)CC[C@H]2O1	0.9804	4.032	0.75	-	1.657	2.033
Cc1nc2c(C#N)cnn2c(C)c1CCC(=O)N(C)C1CC1	-0.6024	-10.46	-0.6098	5.154	1.649	3.311
CCCN(CC1CC1)C(=O)Cn1ccccc1=O	9.497	-5.088	-1.613	0.9562	3.285	-5.301
Cc1cc(C(=O)N2CCc3[nH]nc(-c4ccc5c(c4)OCO5)c3C2)no1	6.522	-27.53	-2.336	-7.084	4.009	-0.08496
COC[C@@H]1CCC[C@]12CN(CCc1ccccc1)CCO2.O=C(O)C(F)(F)F	-	-	-	21.13	-	-
CC1c2ncc(Cn3cncn3)n2CCN1C(=O)[C@H]1CCCO1 (stereo partly drawn)	2.857	-20.45	-5.795	-1.797	1.722	-7.358
O=C(Cc1csc(-c2ccccc2F)n1)NCc1ccc(C(=O)O)cc1	9.901	-6.54	-0.6075	-33.64	6.861	-3.698
Cc1nc(NC(=O)CNC(=O)c2c(F)cccc2Cl)n[nH]1	3.261	-26.25	-2.564	4.688	6.558	0.7415
O=C(O)C(F)(F)F.[H][C@@]12C[C@@H](OCC)CN1CCN(S(=O)(=O)c1cccs1)C2	-	-	-	7.861	-	-
[H][C@@]12OCCN(C(=O)CC3=CCCCC3)[C@@]1([H])CC[C@@H]2OCC	-	-	-	2.273	-	-
c1ccc(CN2CCCn3nnc(CNc4ncccn4)c3C2)nc1	4.294	-3.096	-0.3841	-	7.841	5.398
Cc1ccccc1C(C(=O)NCCSC(C)C)N(C)C (stereo not drawn)	4.124	-4.397	-8.255	13.08	5.294	0.7698
O=C(CCc1nccs1)N1CCN(c2ccc(Cl)cn2)CC1	3.79	13.6	2.872	-0.7219	-1.924	-2.884
Cc1nc2n(n1)CC(NCC(=O)NCCC1=CCCCC1)CC2 (stereo not drawn)	9.836	-20.77	5.623	-103.3	0.4894	-1.341
[H][C@@]12CCC(=O)N(CCc3ccc(C)o3)[C@]1([H])CCN(Cc1cnn(C)c1)C2	-	-	-	45.21	-	-
Cc1cnc(C(=O)N2CCCn3c(nc(CN(C)C)cc3=O)C2)cn1.O=C(O)C(F)(F)F	-	-	-	36.57	-	-
Cc1cccc(CN2C[C@@H]3CN(C(=O)C4CC=CC4)C[C@@H]3C2=O)n1	1.942	-21.97	2.188	-	-0.5289	-1.017
CC(C)N1CCC(N2CCCC(C(=O)NCC3(C)COC3)C2)CC1 (stereo not drawn)	3.665	-19.59	-3.498	18.05	0.962	-3.521
Cc1cc(C2CCCN(C(=O)c3c(C)nn4cccnc34)C2)n[nH]1 (stereo not drawn)	3.396	-14.44	4.042	7.295	6.998	2.111
CCc1ocnc1C(=O)N1CCCC1c1noc(C2CC2)n1 (stereo not drawn)	-1.176	-8.206	3.069	29.32	-0.4403	-2.08
COCCNC(=O)c1nn(-c2cccc(C(C)C)c2)cc1O	7.143	-13.81	-1.471	-5.503	2.789	0.000006
COCCC1(C(=O)O)CCCN(C(=O)c2cnc3c(c2)CCCC3)C1 (stereo not drawn)	0.6061	-2.508	2.676	27.87	1.922	-0.9441
CC(NC(=O)N(C)Cc1ccc2c(c1)OCO2)c1nncn1C (stereo not drawn)	-2.116	-12.34	4.536	-16.37	-0.8568	-3.97
O=C(c1ccc(-c2cc[nH]n2)cc1)N1CC[C@H](CO)[C@H](O)C1	-1.948	-12.97	3.507	8.622	4.421	-1.469
[H][C@@]12CCN(C(=O)c3cccn3C)[C@@]1([H])CC(=O)N2CC1CCOCC1	-	-	-	20.1 & 17.52	-	-
O=C1CCC(=O)c2oc3ccc(Cl)cc3c2N1	1.339	-2.206	2.551	-7.777	2.187	4.583
O=C1N(CC2CC2)CCC12CCN(Cc1ccoc1)CC2	1.442	-	3.059	-	6.941	-3.98
Cc1cccc(CN2CCc3nnc(CN4CCCC4=O)n3CC2)n1	3.759	-	0.2418	-	1.9	3.74
[H][C@]12CCN(C(=O)C(C)C)CC[C@@]1([H])S(=O)(=O)N(Cc1ccncc1)C2	-	-	-	7.148 & -86.11	-	-
CN(Cc1nc(N)c2ccccc2n1)CC1CCCN1c1cccnn1 (stereo not drawn)	1.132	-41.63	10.26	32.68	4.255	4.613
Cn1ncc2c1C(COCC1CC1)CN(S(=O)(=O)C1CC1)C2 (stereo not drawn)	3.941	-4.385	2.03	27.8	3.553	-3.704
NCC1CN(Cc2cn(CCC(N)=O)c3ccccc23)CCO1 (stereo not drawn)	3.784	8.532	-40.17	-12.4	-2.687	-10.21
O=C(O)C(F)(F)F.O=c1ccc2c(n1CC1CC1)CCC(NCc1cccs1)C2 (stereo not drawn)	-	-	-	29.71	-	-
COc1cc(CN(C)C(=O)NCc2cccc3c2OCO3)ccc1SC	1.087	-13.39	-4.637	-5.39	0.4354	2.018
CCN(CC)C(=O)[C@@H]1C[C@H](n2cc(-c3cccc(OC)c3)nn2)CN1	7.263	10.6	-3.629	-3.981	0.725	-4.47
O=C(NCC1(c2cccs2)CCCCC1)N1CCOC(CO)C1 (stereo not drawn)	2.762	-36.45	5.357	11.39	1.981	-1.754
COc1cccc(CN2CC(O)CN(C(=O)C3CCC3)CC2=O)c1OC (stereo not drawn)	8.989	0.04492	1.695	10.32	7.467	-
Cc1nnc2n1CCN(C(=O)C1CCC(n3cccc3)CC1)C2 (stereo not drawn)	-317.7	-11.79	0	18.65	3.918	-2.51
CC(C)c1noc(CCCC(=O)NCC2CCS(=O)(=O)C2)n1 (stereo not drawn)	2.882	-19.32	0.9091	-32.62	0.225	4.413
[H][C@@]12OCCN(C(=O)c3ccnnc3)[C@@]1([H])CC[C@H]2Oc1cccnc1	-	-	-	5.959	-	-
Cc1nc2c(N(CCC(N)=O)CCc3ccccc3)ncnc2o1	-1.064	1.113	-3.893	29.07	-12.02	11.19
CCOCC(=O)NCC(Cc1cccc(F)c1)n1cccc1 (stereo not drawn)	6.186	-0.8616	2.326	14.11 & -1.255	0.1924	-6.915
CNC(=O)Cn1cc(C#N)c(=O)c2cc(Br)ccc21	2.075	-18.85	1.786	10.78	4.917	5.329
COCc1nc(N2CC[C@H](N(C)C)C2)c2cnn(C)c2n1	4.95	-9.287	1.928	36.48	-2.174	6.926
CC(C)c1cc(NC(=O)c2cccnc2)[nH]n1	5.747	-5.713	4	2.786	0.384	-0.6816
CNc1cc(N2CCC(O)(CNC(=O)c3ccc(C)nc3)C2)ncn1 (stereo not drawn)	8.511	15.06	2.451	9.722	7.291	-
[H][C@@]12CS(=O)(=O)C[C@]1([H])N(C(=O)c1cscn1)CCN2C(=O)C(C)C	-	-	-	22.98	-	-
Cc1cc(C)cc(N2CCN(C(=O)C3CN(C)C(=O)N3)CC2=O)c1 (stereo not drawn)	9.901	-0.1821	4.369	34.8	-1.098	2.88

5 of the entries, repeated:

compound,TcHisRS,Pks13 thioesterase,CoaBC,Leishmania in macrophages,PfKRS1,MtTrpRS
CC1c2ncc(Cn3cncn3)n2CCN1C(=O)[C@H]1CCCO1 (stereo partly drawn),2.857,-20.45,-5.795,-1.797,1.722,-7.358
O=C(O)C(F)(F)F.O=c1ccc2c(n1CC1CC1)CCC(NCc1cccs1)C2 (stereo not drawn),-,-,-,29.71,-,-
CCc1ocnc1C(=O)N1CCCC1c1noc(C2CC2)n1 (stereo not drawn),-1.176,-8.206,3.069,29.32,-0.4403,-2.08
c1ccc(CN2CCCn3nnc(CNc4ncccn4)c3C2)nc1,4.294,-3.096,-0.3841,-,7.841,5.398
O=C(CCc1nccs1)N1CCN(c2ccc(Cl)cn2)CC1,3.79,13.6,2.872,-0.7219,-1.924,-2.884